In PubChem BioAssay AID2685 (National Center for Advancing Translational Sciences (NCATS), 2010):
Among all 320,000 compounds or so, about 2,100 (0.66%) were called active. This list was built around the results that the source calls inconclusive (neither active nor inactive); the mix of calls is not that of the screen. Calls come from the whole dose curve; as a rule, active = well fitted inhibition curve with a large enough effect in the signal ratio, with a control signal flat (not every such curve was filed as active); inconclusive = small, poorly fitted or top-dose-only effect, or effect the other way, or a change in a side signal; inactive = flat fitted curve, though single readings scatter; the % refers to the signal ratio. Potencies beside an inconclusive call are fits to weak or partial responses and may not hold up.

experiment: qHTS Assay for Lipid Storage Modulators in Drosophila S3 Cells; details: BODIPY lipid droplet fluorescence, 18-24 h, cells fed with added oleic acid; lipid storage change, negative = inhibition: at 46.1 µM (top of the series) unless noted
Outline: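 Drosophila S3 cells got compounds at several concentrations plus oleic acid (400 uM solution). Laser-scanning cytometry with 488 nm excitation read lipid droplets at 500-530 nm and cells at 575-640 nm. Percent activity was relative to 20 uM Triacsin C.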
% is set by controls: 0 for no effect and ±100 for the full control effect; potency is the fitted concentration of half-maximal effect.

| Structure (SMILES) | lipid storage change, negative = inhibition | Potency |
| --- | --- | --- |
| CCCCc1ccc(Nc2nc(CCC)cc(=O)[nH]2)cc1 | inconclusive: -99.4% | – |
| COc1cc(OC)c(OC)cc1/C=N/NC(=O)c1ccc(=O)n(C)c1 | inconclusive: 23.2% | – |
| Cc1ncsc1C(=O)NCc1ccc(N2CCCC2=O)cc1 | – | active: 2.59 µM |
| O=C(O)c1ccc(/C=N/n2c(C3CCCCC3)n[nH]c2=S)cc1 | inconclusive: 11.1% | – |
| O=C(NCc1ccco1)C1CCN(S(=O)(=O)c2ccccc2C(F)(F)F)CC1 | – | inconclusive: 0.058 µM [falling, full curve, poor fit] |
| O=C(NN1CCCCC1)c1ccccc1 | inconclusive: 17.8% | – |
| COc1ccc(NC2=Nc3ccccc3N3C2=Nc2c(c(C)nn2-c2ccc(C)cc2)C3c2cccnc2)cc1 (configuration not stated) | inconclusive: 19.3% | – |
| O=C(CNC(=O)c1ccc(Cl)cc1)Nc1ccccc1C(F)(F)F | inconclusive: -25.4% [at 9.22 µM] | – |
| Cc1ccc(C2CC(=O)C=C(NCC(C)C)C2)cc1 (configuration not stated) | inconclusive: 20.7% | – |
| CCn1cc(CN2CCN(CC(C)(C)C)C(CCO)C2)c2ccccc21 (configuration not stated) | inconclusive: -17.4% | – |
| Cn1cccc1C(=O)NC(=O)COC(=O)CCNS(=O)(=O)c1cccc(C(F)(F)F)c1 | inconclusive: 19% | – |
| CCOc1ccc(C(=O)NCC(=O)N2CCN(c3ccc(C(F)(F)F)cn3)CC2)cc1 | inconclusive: 19.2% | – |
| CCn1c(N2CCN(C(=S)Nc3ccc(OC)cc3)CC2)nc2ccccc21 | – | inconclusive: 29.1 µM [cytotoxic, single point] |
| COc1ccc(C(C)NC(=O)C23CC4CC(CC(C4)C2)C3)cc1 (configuration not stated) | – | inconclusive: 11.6 µM [falling, partial curve, poor fit] |
| C/C(Cc1ccccc1)=N\NC(=O)CNC(=O)c1cccc(Br)c1 | inconclusive: -82.8% | – |
| O=C1C=Cc2ccccc2/C1=C/c1[nH]c(=O)[nH]c1O | inactive | – |
| COc1ccc(OCC(=O)NS(=O)(=O)c2ccccc2)cc1 | – | inconclusive: 0.116 µM [activator, single point] |
| CC(=O)CN1C(=O)NC2(CCCc3ccccc32)C1=O (configuration not stated) | inconclusive: 49.4% | – |
| Cc1c(NC(=O)c2ccc(S(=O)(=O)N3CCOCC3)cc2)cccc1[N+](=O)[O-] | inconclusive | – |
| CC(C)Cc1nc(Nc2ccc(S(=O)(=O)N3CCCC3)cc2)c2nnn(Cc3ccccc3)c2n1 | – | inconclusive: 20.6 µM [falling, single point] |
| Cc1cc(CNC(=O)Cn2cc([N+](=O)[O-])cn2)c2ccccc2n1 | inconclusive: -4.06% | – |
| O=S(=O)(Nc1cccc(F)c1)c1cccc2nsnc12 | inconclusive: 5.69% | – |

Two records drawn at random from the list so far, as already listed:

| Structure (SMILES) | lipid storage change, negative = inhibition | Potency |
| --- | --- | --- |
| Cc1cc(CNC(=O)Cn2cc([N+](=O)[O-])cn2)c2ccccc2n1 | inconclusive: -4.06% | – |
| COc1ccc(OCC(=O)NS(=O)(=O)c2ccccc2)cc1 | – | inconclusive: 0.116 µM [activator, single point] |
